From the supplement of paper PMC3334620 come the findings set out here.

Over roughly 33,000 sequences, “E-score (-0.5 to 0.5)” has its median near -0.015; the highest 2% begin near 0.3. The list shows a part of the results.

The test deals with T1, Abf1 (UniProt P14164).
T1 sequence: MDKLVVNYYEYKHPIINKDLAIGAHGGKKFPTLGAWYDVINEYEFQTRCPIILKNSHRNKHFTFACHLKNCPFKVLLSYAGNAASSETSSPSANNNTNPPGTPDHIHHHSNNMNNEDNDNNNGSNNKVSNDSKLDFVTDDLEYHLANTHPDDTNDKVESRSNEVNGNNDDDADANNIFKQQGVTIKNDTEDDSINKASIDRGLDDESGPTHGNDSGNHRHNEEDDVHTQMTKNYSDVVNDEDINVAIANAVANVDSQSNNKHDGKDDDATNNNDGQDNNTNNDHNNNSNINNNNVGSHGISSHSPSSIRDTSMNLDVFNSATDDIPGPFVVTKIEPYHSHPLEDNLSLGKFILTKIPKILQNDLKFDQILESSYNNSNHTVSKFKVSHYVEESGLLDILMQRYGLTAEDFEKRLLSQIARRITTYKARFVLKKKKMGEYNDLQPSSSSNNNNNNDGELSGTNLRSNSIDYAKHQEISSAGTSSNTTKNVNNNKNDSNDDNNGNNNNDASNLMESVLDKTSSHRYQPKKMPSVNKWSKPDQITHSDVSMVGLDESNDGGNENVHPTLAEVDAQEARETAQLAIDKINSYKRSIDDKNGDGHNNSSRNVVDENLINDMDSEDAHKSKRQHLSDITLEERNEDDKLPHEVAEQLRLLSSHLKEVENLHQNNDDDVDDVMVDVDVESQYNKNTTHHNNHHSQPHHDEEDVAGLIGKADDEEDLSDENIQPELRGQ
As to the kind of experiment: PBM E-score (8-mer binding enrichment) (E-score (-0.5 to 0.5)); higher = stronger / more preferred TF binding. The settings on record: protein concentration: 200 nM; construct: GST-full length. A digest of the protocol:
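PURExpress in vitro transcription/translation supplied GST-tagged yeast transcription factors, either full-length or DNA-binding domain. Applied at about 100-200 nM to universal all-10-mer Agilent arrays double-stranded by primer extension, the bound protein was detected with fluorescent anti-GST. E-scores, modified Wilcoxon-Mann-Whitney statistics, were given by the Universal PBM Analysis Suite to ungapped eight-base words pooled with their reverse complements after masliner normalisation.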
In the case of AGCTGGAT, the “PBM E-score” value is -0.18.

For the sequence CTGATTTA, the “PBM E-score” value is 0.0199.

With GGTAAGAC, the “PBM E-score” value was -0.0807.

CTCAAATA: the “PBM E-score” value came out at 0.00821.

With GAGTGTAC, the “PBM E-score” value is -0.0427.

In the case of GTAGCACA, the “PBM E-score” value was -0.0223.

For the sequence AAACTGGT, the “PBM E-score” value was -0.0367.

As for CCTTGAAC, the “PBM E-score” value was -0.0179.

Take GACACTGA: the “PBM E-score” value was -0.0199.

ACCAATCC: the “PBM E-score” value is -0.101.

For CGGACGGA, the “PBM E-score” value is -0.0286.

In the case of GGGGTTAA, the “PBM E-score” value was -0.177.

For CACGTCCG, the “PBM E-score” value was found to be 0.00841.

As for AGAGTTTA, the “PBM E-score” value was -0.0329.

For AGAGACAT, the “PBM E-score” value was found to be 0.075.

In the case of AGTGACGA, the “PBM E-score” value was found to be 0.422.

On to ACAATTAG, for which the “PBM E-score” value is -0.137.

On to CCCGCACC, for which the “PBM E-score” value is -0.3.

Regarding GATCATCC, the “PBM E-score” value was 0.197.

Turning to ATGTTCCG, the “PBM E-score” value is -0.0196.

Turning to AACCGGAT, the “PBM E-score” value was 0.0336.

Take ACCTCCAG: the “PBM E-score” value is -0.15.

With CGACAGGC, the “PBM E-score” value was -0.13.

Consider ACGGGTAG, for which the “PBM E-score” value is -0.098.

On to GCCATGAC, for which the “PBM E-score” value was 0.137.

Turning to GTAATTCA, the “PBM E-score” value came to 0.0756.

Regarding ATGTACGA, the “PBM E-score” value was 0.444.

Take CAGGAACG: the “PBM E-score” value is -0.0728.

On to AAAAGCGT, for which the “PBM E-score” value is -0.104.

As to AAGCTATC, the “PBM E-score” value is 0.167.

As to ATCAGTGC, the “PBM E-score” value was -0.0556.

In the case of CTGAGAGA, the “PBM E-score” value is -0.0645.

For the sequence ATGAAGTG, the “PBM E-score” value amounted to 0.00194.

With GTAACCGA, the “PBM E-score” value was -0.112.

In the case of AGCGTAAA, the “PBM E-score” value is -0.105.

For the sequence CAAAAATC, the “PBM E-score” value is -0.091.

Take ATGCTAAA: the “PBM E-score” value is 0.0969.

Regarding AACACGCG, the “PBM E-score” value was -0.00618.

Take CATCTTGC: the “PBM E-score” value is 0.104.

Consider ACCGCAAT, for which the “PBM E-score” value worked out at 0.0745.

In the case of CCACAGCA, the “PBM E-score” value was -0.00404.

Turning to ATGGTGTA, the “PBM E-score” value came out at 0.0439.

For GGAGCACA, the “PBM E-score” value was -0.0857.

Regarding AGCGCTCC, the “PBM E-score” value came to 0.0343.

On to AAAATTTG, for which the “PBM E-score” value worked out at 0.114.

For the sequence GGTGCGTA, the “PBM E-score” value is 0.0324.

On to CATATGCC, for which the “PBM E-score” value turned out to be 0.0684.

Regarding GCGGATCA, the “PBM E-score” value is -0.0391.

Turning to TCTCACCA, the “PBM E-score” value was determined as 0.145.

For AGATAACT, the “PBM E-score” value was 0.0371.

Regarding ATTTGCCA, the “PBM E-score” value is -0.0663.

For the sequence ACACCTGG, the “PBM E-score” value was -0.0483.

In the case of GTGTCACA, the “PBM E-score” value was determined as 0.186.

As for CCAGGGAA, the “PBM E-score” value was -0.272.

As to TGGGTTAA, the “PBM E-score” value is -0.193.

Consider ACGTTACC, for which the “PBM E-score” value is -0.0381.

CGATGGGA: the “PBM E-score” value was -0.025.

For ATGGTTCG, the “PBM E-score” value is -0.225.

On to GGTCAATA, for which the “PBM E-score” value was -0.0187.

For GAAGGTCC, the “PBM E-score” value is -0.142.

For the sequence GCACATCA, the “PBM E-score” value stood at 0.149.

Take TAGACTAA: the “PBM E-score” value is -0.193.

Take AGGAGATG: the “PBM E-score” value was -0.101.

CACTGTGG: the “PBM E-score” value was -0.175.

For ACGTACAG, the “PBM E-score” value is -0.0233.

For ACGACGCG, the “PBM E-score” value turned out to be 0.201.

With GCAGCAGC, the “PBM E-score” value is -0.104.

Consider GTTCCAGA, for which the “PBM E-score” value is -0.078.

With ATTCAATC, the “PBM E-score” value is 0.172.

Consider GGGCCAAA, for which the “PBM E-score” value is -0.111.

In the case of CGTTGATA, the “PBM E-score” value was 0.0989.

In the case of CCCCAATA, the “PBM E-score” value is -0.167.

With AAACCATC, the “PBM E-score” value was -0.0152.

For AACCGACG, the “PBM E-score” value turned out to be 0.0464.

In the case of CCGGAAGA, the “PBM E-score” value amounted to 0.0618.

For the sequence AGTAAGGC, the “PBM E-score” value was -0.0216.

With GAGTTGGC, the “PBM E-score” value is -0.182.

As for AGTGACTC, the “PBM E-score” value was 0.149.

CATACGCC: the “PBM E-score” value was -0.00293.

Regarding ACCACGCA, the “PBM E-score” value was -0.132.

With AGTTCTAA, the “PBM E-score” value was determined as 0.0689.

With AATTAATT, the “PBM E-score” value came out at 0.00666.

Regarding AGGACGTG, the “PBM E-score” value turned out to be 0.0342.

Take GTTCTCGA: the “PBM E-score” value was determined as 0.0249.

Take CTAGTGTC: the “PBM E-score” value came to 0.0664.

As for AAAGGTCC, the “PBM E-score” value turned out to be 0.157.
